PubChem BioAssay AID2685 (National Center for Advancing Translational Sciences (NCATS), 2010)
This is one part of the list. Further columns of the screen follow, without active or inactive calls. Most of these compounds were active or inconclusive in the main read-out, so they are no random draw. Words in brackets tell the shape of the fitted curve; partial curves, single points and poor fits give uncertain potencies.

Assay: qHTS Assay for Lipid Storage Modulators in Drosophila S3 Cells;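 for cell number change: cells counted by Cell Tracker Red CMTPX staining in the red channel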
Conditions: BODIPY lipid droplet fluorescence, 18-24 h; for cell number change: measured here: cell count max response, cells fed with added oleic acid
Method in brief: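 Laser-scanning cytometry quantifies lipid droplet accumulation (500–530 nm total intensity; droplet/cell object ratio) in oleic acid-fed (400 uM added) Drosophila S3 cells treated with a concentration series. 20 uM Triacsin C defined 100% inhibition.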

[1] = measured here: lipid fluorescence (Fed channel) AC50, cells fed with added oleic acid
[2] = measured here: cell number channel AC50, cells fed with added oleic acid

COc1ccc(S(=O)(=O)N2CCCCCC2)cc1C(=O)N(C)Cc1c(F)cccc1Cl
cell number change: -12.8% | AC50 [1]: 29.1 µM [rising, single point]

Fc1ccccc1/C=N/Nc1nc(N2CCCCC2)nc(N2CCCCC2)n1
cell number change: -8.73%

Cc1cccc(C(=O)OCC(=O)Nc2ccc3c(c2)OCCO3)c1
cell number change: 19% | AC50 [1]: 0.0517 µM [rising, full curve, poor fit]

CNS(=O)(=O)c1cccc(C(=O)OCC(=O)/C=C2/N(C)c3ccccc3C2(C)C)c1
AC50 [2]: 1.46 µM [rising, partial curve] | AC50 [1]: 4.11 µM [falling, single point]

Cc1ccc2oc(=O)c3cc(C(=O)NCCN4CCc5ccccc5C4)sc3c2c1
cell number change: 54.7% | AC50 [2]: 29.1 µM [rising, single point] | AC50 [1]: 3.66 µM [rising, partial curve, poor fit]

CCCn1nc(C(=O)N2CCN(S(=O)(=O)c3ccc(C)c(C)c3)CC2)c2ccccc2c1=O
AC50 [1]: 16.4 µM [falling, partial curve]

COCCNC(=S)N/N=C/c1ccccc1C(=O)O
AC50 [2]: 0.00411 µM [rising, full curve, poor fit]

COCCCNC(=S)N/N=C/c1cccc(OC)c1O
cell number change: 12.3%

COc1nc2c(C)cccc2cc1-c1noc(-c2ccncc2)n1
cell number change: 10.1% | AC50 [1]: 0.651 µM [rising, full curve, poor fit]

Cc1ccc(C(=O)COc2cccc(NC(=O)c3ccco3)c2)cc1
cell number change: 74.1% | AC50 [2]: 7.31 µM [rising, partial curve]

CN(C)/C=C/C(=O)c1ccc(Oc2ccccc2)cc1
cell number change: 32.3% | AC50 [2]: 0.013 µM [rising, full curve, poor fit] | AC50 [1]: 29.1 µM [rising, partial curve]

O=C(Nc1ccc(Br)cc1)c1cccc(N2C(=O)C3C4CCC(C4)C3C2=O)c1 (stereo not given)
cell number change: -55.6% | AC50 [2]: 29.1 µM [falling, partial curve, poor fit] | AC50 [1]: 29.1 µM [falling, single point]

CCc1cc2c(SCC(=O)N(CC)c3c(N)n(Cc4ccccc4)c(=O)[nH]c3=O)ncnc2s1
cell number change: -57% | AC50 [1]: 29.1 µM [falling, single point]

CC(=O)c1c(C)[nH]c(C(=O)OCC(=O)Nc2c(C)n(C)n(-c3ccccc3)c2=O)c1C
cell number change: 24%

O=C(Nc1scc(-c2ccccc2)c1C(=O)O)c1ccc(F)cc1
cell number change: 14.8% | AC50 [1]: 29.1 µM [rising, single point]

Cc1ccc(Cl)cc1N1CCN(C(=O)c2ccc(NC3=NC4CS(=O)(=O)CC4S3)cc2)CC1 (stereo not given)
cell number change: -28.1% | AC50 [1]: 20.6 µM [falling, single point]

COc1ccc(CCNC(=O)CCCn2c(SCC(N)=O)nc3cc4c(cc3c2=O)OCO4)cc1OC
cell number change: -31% | AC50 [2]: 6.51 µM [rising, single point] | AC50 [1]: 6.51 µM [rising, single point]

Cc1ccc(S(=O)(=O)N2CCN(C(=O)CSc3nc4ccccc4c(=O)[nH]3)CC2)c(C)c1
cell number change: -32.3% | AC50 [2]: 32.6 µM [falling, single point] | AC50 [1]: 0.0731 µM [falling, full curve, poor fit]

CCCCCSc1nncc(=O)[nH]1
cell number change: -7.73% | AC50 [2]: 0.00517 µM [falling, full curve, poor fit]

CCn1c(C(c2ccccc2)c2ccccc2)n[nH]c1=S
cell number change: -82.7% | AC50 [2]: 29.1 µM [falling, single point]

CN1CCN(C(=O)c2ccc3c(c2)N(C)C(=O)/C(=C/c2cccc(Cl)c2)S3)CC1
cell number change: -48.9% | AC50 [2]: 29.1 µM [falling, single point]

Cc1cc(S(=O)(=O)N2CCCCC2)ccc1OCC(=O)Nc1ccccc1
cell number change: -7.65% | AC50 [1]: 35.5 µM [falling, single point]

CCOC(=O)N1CCc2c(sc3c2c(=O)n(Cc2ccccc2)c(=O)n3Cc2ccc(C)cc2)C1
cell number change: 0.52% | AC50 [1]: 2.59 µM [rising, partial curve]

Cn1c(=N)n(CC(=O)c2cccs2)c2ccccc21
cell number change: -29.8% | AC50 [1]: 13 µM [falling, partial curve, poor fit]

O=C(NCCN1CCOCC1)c1ccc(CS(=O)(=O)Cc2ccccc2F)o1
cell number change: 5.18% | AC50 [1]: 0.411 µM [falling, partial curve]

COc1ccc(C2C(C#N)=C(N)OC3=C2C(=O)CC(C)C3)c(OC)c1OC (stereo not given)
cell number change: -3.59%

CC(C)(C)c1ccc(/C=C/C(=O)N2CCN(c3ncccn3)CC2)cc1
cell number change: -3.7% | AC50 [2]: 2.91 µM [rising, single point] | AC50 [1]: 6.51 µM [rising, partial curve]

CNC(=O)CSc1n[nH]c(-c2cc(Cl)ccc2OC)n1
cell number change: 20% | AC50 [2]: 0.082 µM [rising, full curve, poor fit]

O=C(NCCC1=CCCCC1)C1CCN(S(=O)(=O)N2CCOCC2)CC1
cell number change: 3.12% | AC50 [1]: 7.31 µM [falling, single point]

CN(C)C(=O)N1CCC(C(=O)N2CCCC(C(=O)c3ccc(C(C)(C)C)cc3)C2)CC1 (stereo not given)
cell number change: -58.4% | AC50 [2]: 14.6 µM [falling, partial curve] | AC50 [1]: 8.2 µM [falling, partial curve]

COc1ccc(NC(=O)c2ccccc2NC(=O)CSc2ccccc2)cc1
cell number change: -37% | AC50 [2]: 16.4 µM [falling, single point]

Cc1nnc(SCc2ccccc2C#N)n1-c1ccccc1
cell number change: -12.2% | AC50 [1]: 29.1 µM [rising, partial curve]

Cc1ccc(N(CC(=O)NCc2ccccc2Cl)S(=O)(=O)c2cccs2)cc1
cell number change: 32% | AC50 [2]: 13 µM [rising, single point]

O=c1ccccn1Cc1ccccc1F
cell number change: 1.09% | AC50 [1]: 0.92 µM [falling, partial curve]

CC(=O)CC1(O)C(=O)N(CN2CCN(c3ccccc3)CC2)c2ccccc21 (stereo not given)
cell number change: -1.64%

N#CC1=C2SCC(O)(c3ccccc3)N2C(=O)CC1c1cccs1 (stereo not given)
cell number change: -36.5% | AC50 [2]: 32.6 µM [falling, single point] | AC50 [1]: 29.1 µM [falling, single point]

COC(=O)CCSCC(=O)Nc1cc(C)on1
cell number change: -43.3% | AC50 [2]: 29.1 µM [falling, single point] | AC50 [1]: 29.1 µM [falling, single point]

Cc1nnc(SCC(=O)NN2C(=O)NC3(CCCCC3)C2=O)s1
cell number change: 13.1% | AC50 [1]: 23.1 µM [rising, single point]

COC(=O)CSC(C(=O)Nc1ccc(C)c(C)c1)c1ccccc1 (stereo not given)
cell number change: 4.6% | AC50 [1]: 0.00411 µM [rising, full curve, poor fit]

CN(C)S(=O)(=O)c1cccc(NC(=S)NCCCn2ccnc2)c1
AC50 [2]: 0.103 µM [rising, full curve, poor fit]

CCOC(=O)c1c(NC(=O)CSc2nnc(-c3c[nH]c4ccccc34)n2C)sc2c1CCCC2
cell number change: -11% | AC50 [1]: 1.46 µM [rising, partial curve]

Cc1cc(C)nc(NC(=O)c2cccc(Br)c2)n1
cell number change: 23.6% | AC50 [1]: 29.1 µM [rising, partial curve, poor fit]

O=C(OCC#CCSc1nnc(-c2cccc3ccccc23)o1)c1ccc(Br)cc1
cell number change: 23.5% | AC50 [2]: 0.517 µM [rising, full curve, poor fit]

CN1C(=O)C(C(=O)NC(C)(C)C)C2c3ccccc3OC13CCCCC23 (stereo not given)
cell number change: -20.9% | AC50 [1]: 32.6 µM [falling, single point]

CSc1sc(C(=O)NNC(C)=O)c2c1C1(CCC2)SCCS1
cell number change: -33.9% | AC50 [2]: 10.3 µM [falling, partial curve] | AC50 [1]: 23.1 µM [falling, partial curve, poor fit]

O=S(=O)(NCCc1ccncc1)c1ccc(Br)cc1
AC50 [1]: 4.11 µM [rising, single point]

CC(=O)Cc1nsc(Nc2ccc(Cl)cc2)n1
cell number change: -15% | AC50 [1]: 0.461 µM [falling, full curve, poor fit]

CC(C)c1nccn1CCC(=O)O
cell number change: -16.1% | AC50 [2]: 0.58 µM [falling, full curve, poor fit] | AC50 [1]: 1.3 µM [falling, partial curve]

CCOC(=O)C(Cc1ccccc1)c1ccnc2ncnn12 (stereo not given)
cell number change: 9.59%

COc1ccc(C(=O)c2ccc(OC)c3cccc(O)c23)cc1OC
cell number change: 14.8%

CCn1c(SCC(=O)Nc2ccc(C(C)=O)cc2)nc2c([nH]c3ccccc32)c1=O
cell number change: -26.8%

Nc1nc(CSCCO)nc(Nc2ccc(F)cc2)n1
cell number change: -47.8% | AC50 [2]: 7.31 µM [falling, partial curve] | AC50 [1]: 14.6 µM [falling, partial curve]

CC(C)=CC(=O)OCc1cc([N+](=O)[O-])cc2c1OCOC2
cell number change: 20.4%

O=C(NCc1ccccc1)C(c1cccnc1)N(Cc1ccco1)C(=O)c1ccccn1 (stereo not given)
cell number change: 19.5% | AC50 [1]: 0.58 µM [rising, full curve, poor fit]

Nc1nnc(CC(=O)N/N=C/c2ccccc2OCc2ccccc2F)s1
cell number change: 3.3% | AC50 [1]: 0.411 µM [rising, full curve]

CC1CCCCN1C(=O)CSc1nc(-c2ccccc2)cc(=O)[nH]1 (stereo not given)
cell number change: 6.56% | AC50 [1]: 18.4 µM [rising, single point]

Cc1cc2nc(-c3cccnc3SCC(=O)NC3CC3)[nH]c2cc1C
cell number change: 81.9% | AC50 [2]: 5.17 µM [rising, full curve] | AC50 [1]: 20.6 µM [rising, single point]

CCN(CC(=O)Nc1cc(Cl)ccc1C)C(=O)c1cc([N+](=O)[O-])ccc1N1CCOCC1
AC50 [1]: 29.1 µM [rising, single point]
